According to paper PMC4326459:
Results are given in words; binding and its absence hold for the method and conditions named. Binding seen in cells or lysates may run through a third protein. Binding can be weak; no strength is given.

Amino acid sequences for entries named in this document (tags omitted). A change or cut given only in a name is not applied to a line headed by its entry.
UniProt P12004: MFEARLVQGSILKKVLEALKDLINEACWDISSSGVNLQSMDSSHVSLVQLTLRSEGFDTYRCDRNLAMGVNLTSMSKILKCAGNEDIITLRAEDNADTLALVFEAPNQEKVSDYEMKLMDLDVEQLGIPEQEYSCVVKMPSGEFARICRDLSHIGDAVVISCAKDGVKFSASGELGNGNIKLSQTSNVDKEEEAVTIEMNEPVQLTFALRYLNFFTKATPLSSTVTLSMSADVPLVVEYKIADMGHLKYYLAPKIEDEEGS
UniProt P55211: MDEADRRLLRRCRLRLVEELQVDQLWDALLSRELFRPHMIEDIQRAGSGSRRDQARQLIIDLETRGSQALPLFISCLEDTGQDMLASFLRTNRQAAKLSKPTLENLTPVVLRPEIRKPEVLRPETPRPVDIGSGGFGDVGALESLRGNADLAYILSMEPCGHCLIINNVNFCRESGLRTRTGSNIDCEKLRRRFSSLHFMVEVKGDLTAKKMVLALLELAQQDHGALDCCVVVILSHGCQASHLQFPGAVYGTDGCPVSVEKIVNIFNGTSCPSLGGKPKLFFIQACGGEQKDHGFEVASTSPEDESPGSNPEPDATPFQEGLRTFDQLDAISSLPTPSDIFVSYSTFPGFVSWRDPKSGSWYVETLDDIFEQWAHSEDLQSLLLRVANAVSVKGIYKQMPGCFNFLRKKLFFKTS

Legend:
Assay in all cases: pull-down; WT or mutant His-PCNA on nickel-agarose beads, exposed to SNOC or control conditions, incubated in the dark with HeLa cytosolic fraction (about 50 ug His-PCNA, overnight, 4°C); caspase-9 detected by Western blot; only the target purified
[1] = target: recombinant wild-type His-PCNA (human) (UniProt P12004)
[2] = target: recombinant His-PCNA C162A (human) (UniProt P12004)
[3] = target: recombinant His-PCNA C81A (human) (UniProt P12004)

- binding [1]: binds
- binding [2]: binds
- binding [3]: binds
Substance: caspase-9, endogenous in HeLa cytosol (from UniProt P55211) (enzyme)
